Earlier results as cited in patent US20060083786A1, “Taste masking pharmaceutical composition containing levocetirizine” (Glenmark Pharmaceuticals Limited, priority 2004, published 2006).

The chains behind the UniProt entries cited, without tags or fusion partners.
UniProt P35367, whole entry: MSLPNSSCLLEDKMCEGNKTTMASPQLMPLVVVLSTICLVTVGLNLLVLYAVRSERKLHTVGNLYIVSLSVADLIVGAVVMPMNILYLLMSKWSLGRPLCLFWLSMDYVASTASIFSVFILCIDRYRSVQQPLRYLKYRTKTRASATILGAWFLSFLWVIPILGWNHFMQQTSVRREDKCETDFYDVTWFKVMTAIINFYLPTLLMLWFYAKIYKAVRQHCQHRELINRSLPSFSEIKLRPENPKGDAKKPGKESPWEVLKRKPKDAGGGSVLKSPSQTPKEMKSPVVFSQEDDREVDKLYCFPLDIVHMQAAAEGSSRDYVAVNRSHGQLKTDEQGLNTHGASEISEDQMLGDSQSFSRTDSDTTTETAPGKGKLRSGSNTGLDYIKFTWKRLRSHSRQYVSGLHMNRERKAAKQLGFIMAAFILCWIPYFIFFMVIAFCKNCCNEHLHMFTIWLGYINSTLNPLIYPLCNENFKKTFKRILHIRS

Tests used:
[1] = target: human H1 receptors (Homo sapiens, UniProt P35367); details: compared with cetirizine; 'is believed'
[2] = 'is believed'

affinity for human H1 receptors relative to cetirizine [1]: two fold higher | absorption [2]: rapidly and extensively absorbed
SMILES: O=C(O)COCCN1CCN([C@H](c2ccccc2)c2ccc(Cl)cc2)CC1 [Levocetirizine]
